Measured values from patent US12169192B2, “Methods of identifying a hydrocarbon fuel” (Afton Chemical Corporation, priority 2020, dated 2024).
At least one compound was matched to its structure with a doubt left.

Tests used:
[1] = Partition of marker compound between water and heptane phases; type: physicochemical
Method: (§1) In this Example, the separation/partition of the marker compound between water and fuel phases was measured. The procedure for this Example included: measure fluorescence of 10 grams of water phase with and without marker compound present to determine background fluorescence. Then, 10 grams of hydrocarbon including 10 ppb of marker compound was added to the water and gently agitated for 1 minute. After mixing, the sample was allowed to completely separate into two phases. Thereafter, the fluorescence of the water phase was re-measured. Since the marker concentration is directly proportional to fluorescence intensity (at 10 ppb and within a range of interest), the Partition Ratio can be calculated from the initial and final tracer fluorescence intensities (corrected for any background fluorescence) from the water phase.
(§2) For this Example, Rhodamine B, Rhodamine 101, and Fluorescein marker compounds were used. For Rhodamine 101 and Rhodamine B measurements, excitation wavelength was 540 nm and emission wavelength was 590 nm. For Fluorescein measurements, excitation wavelength was 470 nm and emission wavelength was 515 nm.

[2] = Partition of marker compound between water and gasoline phases; type: physicochemical
Method: as §1, §2

O=C1OC2(c3ccc(O)cc3Oc3cc(O)ccc32)c2ccccc21 [Fluorescein]
Initial Fluorescence Intensity in Water Phase ([1]; heptane, excitation 470 nm, emission 515 nm, 10 ppb marker): 93.5 arb units | Fluorescence Intensity in Water Phase After Partition ([1]; heptane, excitation 470 nm, emission 515 nm, not background corrected): 91 arb units | Partition Ratio (Kd) ([1]; water/heptane, corrected for background): 22.38 | Initial Fluorescence Intensity in Water Phase ([2]; gasoline, excitation 470 nm, emission 515 nm, 10 ppb marker): 97 arb units | Fluorescence Intensity in Water Phase After Partition ([2]; gasoline, excitation 470 nm, emission 515 nm, not background corrected): 101 arb units | Partition Ratio (Kd) ([2]; water/gasoline, corrected for background): 10.41
